# Data reported in US10591497B2, “Immunoassay for synthetic cannabinoids of the adamantyl indazole/indole-3-carboxamide family” (Randox Laboratories Limited, priority 2014, dated 2020).
# System: antibody derived from Immunogen of Example 9
# Experiment: Competitive immunoassay (ELISA), IC50 derivation and cross-reactivity
# Type: binding, sheep
# Description: All cross-reactivity are measured herein under the experimental conditions of Example 12 and compared to 100% for AKB48.
# IgG is extracted from the antisera and immobilised on a 96 well ELISA plate (coated for 2 hours at +37° C. at 10 ug/ml in a Phosphate Buffered Saline pH7.2). Unbound material is removed by washing with Tris Buffered Saline (TBS) containing tween ([…]) over 10 minutes. Standard AKB48 is added at the concentrations quoted in Table 1, followed by detection agent 1 (FIG. 2) at 1/140 k in a dilution buffer. After incubation (60 mins) at +15 to +25° C. to allow a competition reaction to take place, the microtitre plate is washed with TBS containing Tween™ to remove excess reagents. The enzyme substrate […] (125 μl) is added (Kem-en-Tec Cat. No. 4800). After a 20 minute incubation period to allow maximum colour development, the colour reaction is stopped by the addition of sulphuric acid (0.2M, 120 μl). This produces a colour change from blue to yellow, and the absorbances are read at 450 nm. A standard curve is then constructed and the IC50 calculated as the AKB48 concentration which produces 50% inhibition of maximal signal. This process was repeated for synthetic cannabinoid members as stated in Table 2 to assess cross-reactivity.
# The cross-reactivity (CR) was calculated using the equation below. All calculations were based upon binding and displacement at the 50% of maximum OD (optical density) binding point. The maximum OD is the signal generated using tracer alone and 50% displacement (inhibition) corresponds to the IC50. […]
# The extent of antibody binding to synthetic cannabinoids of various families was assessed (Table 2). For the cross-reactants with IC50 values, standard curves were derived for each analyte (as per AKB48 and Table 1). […] In all cases, the cross-reactivity set out in Table 2 was measured using an antibody derived from the immunogen of Example 9 and Tracer 1 of Example 10.
smiles,measurement,setting,value
"CCCCCn1cc(C(=O)NC23CC4CC(CC(C4)C2)C3)c2ccccc21 [AKB48, N-(1-adamantyl)-1-pentyl-1H-indole-3-carboxamide]",Average OD (A450),AKB48 concentration 0.25 ng/ml,1.470
same,Average OD (A450),AKB48 concentration 0.74 ng/ml,1.159
same,Average OD (A450),AKB48 concentration 2.22 ng/ml,0.835
same,Average OD (A450),AKB48 concentration 6.67 ng/ml,0.434
same,Average OD (A450),AKB48 concentration 20.00 ng/ml,0.206
